Assay: Promiscuity Index of the hits (Table 5)

Compound	Promiscuity Index
CCOC(=O)C1CCN(C(=O)Nc2ccc(NC(=O)C3CCN(C(=O)OCC)CC3)cc2)CC1 [SR-01000451467-1]	1 out of 45
CC1=C(C(=O)OCCc2ccccc2)C(c2ccc(Cl)cc2Cl)C2=C(CC(C)(C)CC2=O)N1 (stereo not shown) [SR-01000419178-1]	1 out of 45
CSc1ccccc1C(=O)Nc1nc2nc(C)cc(C)c2s1 [SR-01000917298-1]	1 out of 17
Cc1cc(OCC(=O)Nc2ccc3oc(-c4ccccc4Br)nc3c2)cc(C)c1Cl [SR-01000421466-1]	1 out of 45
CCSCCOC(=O)C1=C(C)NC2=C(C(=O)CCC2)C1c1ccc(Br)cc1 (stereo not shown) [SR-01000422432-1]	2 out of 45
COc1ccc(C2CC(=O)C3=C(C2)NC(C)=C(C(=O)OC(C)C)C3c2ccccc2OC(C)C)cc1 (stereo not shown) [SR-01000422384-1]	2 out of 45
CCN1C(=O)c2cccc3c(N4CCCC4)ccc(c23)C1=O [SR-01000221568-1]	15 out of 45
NC(c1nc2cc(-c3ccncc3)cnc2[nH]1)c1ccc(F)cc1F.O=C(O)C(F)(F)F (stereo not shown) [SR-00000003416-1]	2 out of 41
CCS(=O)(=O)NCC(c1cccs1)S(=O)(=O)c1ccc(C)cc1 (stereo not shown) [SR-01000023127-1]	2 out of 45
CCN(CC)c1ccc2cc(-c3nc(C)cs3)c(=O)oc2c1 [SR-01000312020-1]	13 out of 45
CC1=C(C(=O)OC2CCCCC2)C(c2ccc(F)cc2)C2=C(CC(c3ccccc3)CC2=O)N1 (stereo not shown) [SR-01000420805-1]	2 out of 45
CCN(CC)c1ccc2cc(-c3ccccn3)c(=O)oc2c1 [SR-01000033354-1]	13 out of 45
CCN(Cc1ccccc1)C(=O)c1cc2c(=O)n3cccc(C)c3nc2n1C [SR-01000140943-1]	2 out of 45
CCOC(=O)c1sc2ncn(CC(=O)NCCC3=CCCCC3)c(=O)c2c1C [SR-01000119175-1]	1 out of 45
O=C(NCCCN1CCc2ccccc2C1)Nc1ccc(Br)cc1 [SR-01000123578-1]	3 out of 45
Cc1ccc(-c2cccc3cnc(Nc4ccc(-n5cnc(-c6ccccn6)n5)cc4)nc23)cn1.O=C(O)C(F)(F)F [SR-00000008492-1]	1 out of 36
CN(C)CCN(C)c1nc([C@H](N)Cc2cccc(F)c2)cc2ccc(-c3cn[nH]c3)cc12.O=C(O)C(F)(F)F [SR-00000006284-1]	2 out of 36
Cc1cccc(N2CCN(C(=O)CCc3nc(C4=CCN(C)CC4)no3)CC2C)c1 (stereo not shown) [SR-01000140019-1]	4 out of 45
COc1ccccc1-c1ccc(N2CCN(C(=O)COc3ccccc3)CC2)nn1 [SR-01000920770-1]	2 out of 17
O=C(Cc1ccc(Br)cc1)N1CCC(c2nc(O)c3cnccc3n2)C1.O=C(O)C(F)(F)F (stereo not shown) [SR-00000005455-1]	2 out of 41
Cc1cccc(NC(=O)N2CCC(c3nnc(C4CC4)s3)CC2)c1 [SR-01000922889-1]	1 out of 17

Compound	Promiscuity Index
COc1ccc(N2C(=O)CC(SCCN)C2=O)cc1 (stereo not shown) [SR-01000428800-1]	1 out of 45
CC(=O)NCC(c1cccs1)S(=O)(=O)c1ccc(C)cc1 (stereo not shown) [SR-01000023077-1]	2 out of 45
COc1ccc(COC(=O)C2=C(C)NC3=C(C(=O)CC(C)(C)C3)C2c2ccccc2)cc1 (stereo not shown) [SR-01000427708-1]	2 out of 45
CCCCCCCC(=O)Nc1ccc(C(=O)Nc2ccc(O)c(C(=O)O)c2)cc1 [SR-01000507444-1]	2 out of 45
COc1cc(-c2ccnc(N)n2)ccc1NC(=O)[C@H]1COc2ccccc2O1.O=C(O)C(F)(F)F [SR-00000003239-1]	2 out of 41
COCCOC(=O)C1=C(C)NC2=C(C(=O)CC(c3ccccc3)C2)C1c1ccc(OCc2ccccc2)cc1 (stereo not shown) [SR-01000422392-1]	1 out of 45
Cc1ccc(-c2nnc(N3CCN(C(=O)c4ccco4)CC3)c3ccccc23)cc1 [SR-01000505133-1]	2 out of 45
COc1ccccc1C1C(C(=O)OC2CCCC2)=C(C)NC2=C1C(=O)CC(c1ccccc1)C2 (stereo not shown) [SR-01000422836-1]	1 out of 45
COc1ccc(OC)c(/C=C2/N=C(c3cccc([N+](=O)[O-])c3)OC2=O)c1 [SR-01000414795-1]	1 out of 45
Cc1ccc2nc(SCC(=O)Nc3ncc(C)s3)c(C#N)cc2c1 [SR-01000340506-1]	3 out of 45
CC1=C(C(=O)OCc2ccccc2)C(c2cn(-c3ccccc3)nc2-c2ccc(F)cc2)C(C(=O)OCc2ccccc2)=C(C)N1 [SR-01000425637-1]	1 out of 45
CCC(c1nnnn1CCC(C)C)N1CCN(C(=O)c2ccco2)CC1 (stereo not shown) [SR-01000340422-1]	1 out of 45
CCCOc1ccc(C2C(C(=O)OC)=CN(CCOC)C=C2C(=O)OC)cc1 [SR-01000259436-1]	1 out of 45
CC(C)(C)OC(=O)N/N=C\c1cccs1 [SR-01000110457-1]	1 out of 45
CCN(CC)c1ccc2c(c1)OC(N)=C(C#N)C2c1ccccc1 (stereo not shown) [SR-01000320053-1]	7 out of 45
CC(C)[C@@H](CO)Nc1ccc2ncc(-c3cccc(Cl)c3)n2n1 [SR-01000383396-1]	2 out of 45
Cc1ncn(-c2ccc(Nc3cc(-c4nocc4-c4ccccn4)ccn3)cc2)n1.O=C(O)C(F)(F)F [SR-00000006872-1]	1 out of 36
CC(=O)Nc1ccc(NC(=O)Cn2cnc3c(cnn3C(C)(C)C)c2=O)cc1 [SR-01000137195-1]	1 out of 45
CN(C)CC[S+]([O-])c1cc(-c2cn[nH]c2)ccc1NC(=O)[C@@H]1Cc2cc(F)ccc2CN1.O=C(O)C(F)(F)F (stereo partly shown) [SR-00000005398-1]	3 out of 41
CCOc1ccc(Br)cc1C1C2=C(CCCC2=O)N(CC(=O)O)C2=C1C(=O)CCC2 [SR-01000476712-1]	1 out of 45
CC1=C(C(=O)OC(C)C)C(c2ccncc2)C2=C(CC(c3ccccc3)CC2=O)N1 (stereo not shown) [SR-01000217822-2]	2 out of 45

Compound	Promiscuity Index
COc1cccc(C=O)c1OC(=O)c1cccc(Cl)c1 [SR-01000242625-1]	2 out of 45
CCOC(=O)C1=CN(Cc2ccc(OC)cc2)C=C(C(=O)OCC)C1c1ccccc1OCc1ccccc1 [SR-01000587933-1]	1 out of 45
CCSc1nnc(C2CCN(CC(=O)Nc3cccc4ccccc34)CC2)n1C [SR-01000349710-1]	1 out of 45
CC(C)c1ccc(Nc2nccn3c(-c4ccoc4)cnc23)cc1 [SR-01000376943-1]	2 out of 44
CC(NC(=O)c1cnc2ccccn12)c1ccc(F)cc1 (stereo not shown) [SR-01000378746-1]	2 out of 46
O=C(Nc1ccc2c(c1)OCO2)N1CCC(c2nnc(C3CC3)s2)CC1 [SR-01000922885-1]	1 out of 17
CCC(C)OC(=O)C1=C(C)NC2=C(C(=O)CC(c3ccccc3)C2)C1c1cccc2ccccc12 (stereo not shown) [SR-01000423185-1]	2 out of 45
CCSCCOC(=O)C1=C(C)NC2=C(C(=O)CC(c3ccccc3)C2)C1c1ccc(OC)cc1OC (stereo not shown) [SR-01000425645-1]	1 out of 45
Fc1ccccc1CSc1nnnn1-c1ccccc1F [SR-01000432842-1]	1 out of 45
CCC(C)OC(=O)C1=C(C)NC2=C(C(=O)CC(c3ccc(Cl)cc3)C2)C1c1cccc(Cl)c1 (stereo not shown) [SR-01000422821-1]	2 out of 45
Cn1nc(CC(=O)Nc2ccc(F)c(Cl)c2)c2ccccc2c1=O [SR-01000589827-1]	1 out of 45
COc1cccc(/C=N/c2ccc3[nH]ncc3c2)c1O [SR-01000359514-1]	3 out of 45
C/C(=N\Nc1cccc(C(F)(F)F)c1)C1CC1 [SR-01000041073-1]	3 out of 45
O=C(c1ccco1)N1CCN(c2ncc(-c3ccccc3CO)n3ccnc23)CC1 [SR-01000381408-1]	1 out of 46
COc1ccccc1-c1ccc(=O)n(CC(=O)Nc2ccc(C(=O)N3CCCC3)cc2)n1 [SR-01000332536-1]	1 out of 45
COc1ccc(SCC(=O)NNC(=S)Nc2ccccc2)cc1 [SR-01000526835-1]	2 out of 45
COc1cccc(/C=N/c2cnn(C)c2C(N)=O)c1O [SR-01000314216-1]	1 out of 45
O=c1c2cnn(-c3ccccc3)c2nnn1Cc1cccnc1 [SR-01000355082-1]	1 out of 45
Cc1nc(C(C)NC(=O)c2cc(COc3ccc(F)cc3F)on2)cs1 (stereo not shown) [SR-01000168282-1]	1 out of 45

— US20210047278A1, “E3 UBIQUITIN LIGASE AGONISTS, PHARMACEUTICAL COMPOSITIONS INCLUDING THE E3 UBIQUITIN LIGASE AGONISTS, RELATED METHODS OF USE” (FRED HUTCHINSON CANCER RESEARCH CENTER, priority 2018, published 2021)
